Measurements published in patent US20260240871A1, “PHARMACEUTICAL COMPOSITION FOR PREVENTION OR TREATMENT OF AGE-RELATED MUSCULOSKELETAL DISORDERS” (SEOUL NATIONAL UNIVERSITY R&DB FOUNDATION, priority 2023, published 2026).
At least one compound was matched to its structure with a doubt left.

Tested on: DNA damage-induced senescent cells (SEN) and oncogene-induced senescent cells (SEN (OIS)) of human diploid fibroblasts (IMR90, BJ)
Assay: SASP factor and senescence marker gene expression (qRT-PCR) in senescent cell models
Type: cell-based
Details: senescence-induced cells treated with probucol plus test substance
Experimental: DNA damage-induced senescence was induced in human diploid fibroblasts (IMR90, BJ) by treatment with ionizing radiation (12 Gy) or bleomycin (10 μg/ml, for 24 hours). Specifically, IMR90 and BJ cells expressing hTERT (DNA damage-induced senescence; SEN), IMR90 cells co-expressing hTERT and H-RasV12 [oncogene-induced senescence; SEN (OIS)], and replication-exhausted [replicative senescent cells; SEN (REP)] IMR90 cells were prepared. Normal proliferating cells (PRO) were used as the control.
To investigate the functional consequences of age-related changes in cholesterol levels, cellular cholesterol was depleted using methyl-β-cyclodextrin (MβCD), and multiple senescence markers were examined during DNA damage-induced aging, including senescence-associated β-galactosidase (SA-β-Gal) activity, cell cycle arrest, and expression of senescence-associated secretory phenotype (SASP) factors.
To specifically confirm the effect of increased expression of lysosomal ABCA1 on SASP activity, experiments were conducted using probucol, an ABCA1 modulator that has been reported to limit its localization to intracellular compartments including lysosomes, and glyburide, a broad-spectrum inhibitor of the ABC transport protein family that promotes channel closure of ABC transporters. […]

CO[C@H]1C[C@@H]2CC[C@@H](C)[C@@](O)(O2)C(=O)C(=O)N2CCCC[C@H]2C(=O)O[C@H]([C@H](C)C[C@@H]2CC[C@@H](O)[C@H](OC)C2)CC(=O)[C@H](C)/C=C(\C)[C@@H](O)[C@@H](OC)C(=O)[C@H](C)C[C@H](C)/C=C/C=C/C=C/1C [rapamycin]
SASP activation / SASP factor expression induced by probucol: completely inhibited
